Results deposited as PubChem BioAssay AID743121 (NCATS, 2013).
This is a random part of about 26,000 reagents. 167 of them (0.63%) were called active. 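Calls are per gene from RSA p-values that are not deposited; an individual active-marked siRNA can sensitise only weakly.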 Unmarked entries are inactive. The numbers tell different reagents against one gene apart. Further read-outs or replicates are left out here.

- Screen: 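Partners whose loss is lethal together with topoisomerase I blockade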 (primary screen)
- Cell system: MDA-MB-231 cells, a human breast cancer line
- Reagents: single siRNA against human genes, 20 nM siRNA (0.8 pmol per well)
- Time to read-out: 120 h (drug added 48 h after transfection, read 72 h later)
- Conditions: camptothecin 20 nM (about EC30) for 72 h; vehicle 0.1% DMSO in parallel plates
- Detection: 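CellTiter-Glo ATP signal, scaled to control siRNA as percent viability; sensitisation given as log2 of untreated divided by camptothecin-treated viability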
- Direction: log2 vehicle/camptothecin viability: higher = stronger sensitisation to camptothecin; viability with camptothecin: higher = more viable cells
- Active means: 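Active genes have an RSA gene-level p-value below 0.001, computed from the ratios of their separate siRNAs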

{"gene": "ASNSD1 (asparagine synthetase domain containing 1)", "reagent": 1, "log2 vehicle/camptothecin viability": 0.0261, "viability with camptothecin (% of control)": 83.4}
{"gene": "ASNSD1 (asparagine synthetase domain containing 1)", "reagent": 2, "log2 vehicle/camptothecin viability": -0.177, "viability with camptothecin (% of control)": 81.3}
{"gene": "ASNSD1 (asparagine synthetase domain containing 1)", "reagent": 3, "log2 vehicle/camptothecin viability": 0.985, "viability with camptothecin (% of control)": 16.6}
{"gene": "ASNSD1 (asparagine synthetase domain containing 1)", "reagent": 4, "log2 vehicle/camptothecin viability": 0.267, "viability with camptothecin (% of control)": 71.7}
{"gene": "AMIGO2 (adhesion molecule with Ig like domain 2)", "reagent": 1, "log2 vehicle/camptothecin viability": -0.363, "viability with camptothecin (% of control)": 103}
{"gene": "AMIGO2 (adhesion molecule with Ig like domain 2)", "reagent": 2, "log2 vehicle/camptothecin viability": -0.109, "viability with camptothecin (% of control)": 58.9}
{"gene": "AMIGO2 (adhesion molecule with Ig like domain 2)", "reagent": 3, "log2 vehicle/camptothecin viability": -0.245, "viability with camptothecin (% of control)": 80.2}
{"gene": "PRSS55 (serine protease 55)", "reagent": 1, "log2 vehicle/camptothecin viability": -0.0576, "viability with camptothecin (% of control)": 93.3}
{"gene": "PRSS55 (serine protease 55)", "reagent": 2, "log2 vehicle/camptothecin viability": 0.0385, "viability with camptothecin (% of control)": 28.8}
{"gene": "PRSS55 (serine protease 55)", "reagent": 3, "log2 vehicle/camptothecin viability": -0.153, "viability with camptothecin (% of control)": 64.6}
{"gene": "PRSS55 (serine protease 55)", "reagent": 4, "log2 vehicle/camptothecin viability": -0.349, "viability with camptothecin (% of control)": 75.9}

A stretch from the list above:
{"gene": "AMIGO2 (adhesion molecule with Ig like domain 2)", "reagent": 2, "log2 vehicle/camptothecin viability": -0.109, "viability with camptothecin (% of control)": 58.9}
{"gene": "AMIGO2 (adhesion molecule with Ig like domain 2)", "reagent": 3, "log2 vehicle/camptothecin viability": -0.245, "viability with camptothecin (% of control)": 80.2}
{"gene": "PRSS55 (serine protease 55)", "reagent": 1, "log2 vehicle/camptothecin viability": -0.0576, "viability with camptothecin (% of control)": 93.3}
{"gene": "PRSS55 (serine protease 55)", "reagent": 2, "log2 vehicle/camptothecin viability": 0.0385, "viability with camptothecin (% of control)": 28.8}

Additional records follow:
{"gene": "ROBO4 (roundabout guidance receptor 4)", "reagent": 1, "log2 vehicle/camptothecin viability": -0.214, "viability with camptothecin (% of control)": 64.6}
{"gene": "ROBO4 (roundabout guidance receptor 4)", "reagent": 2, "log2 vehicle/camptothecin viability": -0.185, "viability with camptothecin (% of control)": 69.8}
{"gene": "ROBO4 (roundabout guidance receptor 4)", "reagent": 3, "log2 vehicle/camptothecin viability": -0.388, "viability with camptothecin (% of control)": 67.7}
{"gene": "ROBO4 (roundabout guidance receptor 4)", "reagent": 4, "log2 vehicle/camptothecin viability": 0.0177, "viability with camptothecin (% of control)": 38.4}
{"gene": "TXNDC17 (thioredoxin domain containing 17)", "reagent": 1, "log2 vehicle/camptothecin viability": 0.682, "viability with camptothecin (% of control)": 7.23}
{"gene": "TXNDC17 (thioredoxin domain containing 17)", "reagent": 2, "log2 vehicle/camptothecin viability": -0.745, "viability with camptothecin (% of control)": 53.8}
{"gene": "TXNDC17 (thioredoxin domain containing 17)", "reagent": 3, "log2 vehicle/camptothecin viability": -0.35, "viability with camptothecin (% of control)": 80.5}
{"gene": "TXNDC17 (thioredoxin domain containing 17)", "reagent": 4, "log2 vehicle/camptothecin viability": -0.0646, "viability with camptothecin (% of control)": 85}
{"gene": "ATP2B4 (ATPase plasma membrane Ca2+ transporting 4)", "reagent": 1, "log2 vehicle/camptothecin viability": 0.00302, "viability with camptothecin (% of control)": 26.4}
{"gene": "ATP2B4 (ATPase plasma membrane Ca2+ transporting 4)", "reagent": 2, "log2 vehicle/camptothecin viability": -0.288, "viability with camptothecin (% of control)": 77.6}
{"gene": "ATP2B4 (ATPase plasma membrane Ca2+ transporting 4)", "reagent": 3, "log2 vehicle/camptothecin viability": 0.206, "viability with camptothecin (% of control)": 22.9}
{"gene": "HEY2", "reagent": 1, "log2 vehicle/camptothecin viability": -0.164, "viability with camptothecin (% of control)": 75.3}
{"gene": "HEY2", "reagent": 2, "log2 vehicle/camptothecin viability": 0.258, "viability with camptothecin (% of control)": 89}
{"gene": "HEY2", "reagent": 3, "log2 vehicle/camptothecin viability": -0.436, "viability with camptothecin (% of control)": 30.8}
{"gene": "HEY2", "reagent": 4, "log2 vehicle/camptothecin viability": 0.116, "viability with camptothecin (% of control)": 95}
